These results are taken from article doi:10.1101/2022.12.06.519316.

The chains behind the UniProt entries cited, without tags or fusion partners. Where a name states a change or a piece, a line headed by the entry shows the natural chain unless it says otherwise. Residues count along the entry.
UniProt Q96LA9, residues 2-322: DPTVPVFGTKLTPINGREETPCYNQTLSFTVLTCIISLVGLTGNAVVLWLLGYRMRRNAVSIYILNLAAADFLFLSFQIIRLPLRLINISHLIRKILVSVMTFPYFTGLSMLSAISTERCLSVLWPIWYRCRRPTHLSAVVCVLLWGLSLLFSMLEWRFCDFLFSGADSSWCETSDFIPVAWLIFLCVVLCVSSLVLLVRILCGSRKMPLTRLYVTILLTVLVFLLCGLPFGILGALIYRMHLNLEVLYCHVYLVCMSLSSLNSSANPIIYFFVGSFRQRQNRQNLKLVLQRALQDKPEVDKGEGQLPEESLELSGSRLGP
UniProt Q16602: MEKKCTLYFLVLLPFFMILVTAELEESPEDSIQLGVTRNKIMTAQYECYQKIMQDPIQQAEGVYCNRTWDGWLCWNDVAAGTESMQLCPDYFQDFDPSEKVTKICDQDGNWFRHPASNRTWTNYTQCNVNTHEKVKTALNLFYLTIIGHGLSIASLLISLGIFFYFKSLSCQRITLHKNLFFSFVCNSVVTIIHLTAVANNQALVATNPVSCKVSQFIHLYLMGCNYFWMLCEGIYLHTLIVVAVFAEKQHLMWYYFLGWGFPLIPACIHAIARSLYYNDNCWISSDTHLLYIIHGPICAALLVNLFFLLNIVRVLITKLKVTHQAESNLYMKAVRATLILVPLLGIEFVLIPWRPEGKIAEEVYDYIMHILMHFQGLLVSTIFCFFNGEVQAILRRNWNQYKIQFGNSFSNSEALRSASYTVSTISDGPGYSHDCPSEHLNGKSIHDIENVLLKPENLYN
UniProt O60895, residues 43-175: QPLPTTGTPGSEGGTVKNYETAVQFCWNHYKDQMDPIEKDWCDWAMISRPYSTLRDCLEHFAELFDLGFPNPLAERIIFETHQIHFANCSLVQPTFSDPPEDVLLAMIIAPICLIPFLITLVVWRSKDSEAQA
UniProt P49407: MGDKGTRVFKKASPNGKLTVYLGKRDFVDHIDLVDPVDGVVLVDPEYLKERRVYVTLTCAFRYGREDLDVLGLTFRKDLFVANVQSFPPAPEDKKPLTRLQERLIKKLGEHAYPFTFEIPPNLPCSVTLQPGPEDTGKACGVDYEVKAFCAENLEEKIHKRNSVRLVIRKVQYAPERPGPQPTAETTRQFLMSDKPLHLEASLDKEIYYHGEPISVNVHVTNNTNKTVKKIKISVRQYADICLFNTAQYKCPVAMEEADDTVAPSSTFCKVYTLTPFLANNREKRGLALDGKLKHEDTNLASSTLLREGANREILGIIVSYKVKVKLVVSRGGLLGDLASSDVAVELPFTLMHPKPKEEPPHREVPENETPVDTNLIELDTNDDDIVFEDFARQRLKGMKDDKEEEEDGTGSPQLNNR
UniProt P32121: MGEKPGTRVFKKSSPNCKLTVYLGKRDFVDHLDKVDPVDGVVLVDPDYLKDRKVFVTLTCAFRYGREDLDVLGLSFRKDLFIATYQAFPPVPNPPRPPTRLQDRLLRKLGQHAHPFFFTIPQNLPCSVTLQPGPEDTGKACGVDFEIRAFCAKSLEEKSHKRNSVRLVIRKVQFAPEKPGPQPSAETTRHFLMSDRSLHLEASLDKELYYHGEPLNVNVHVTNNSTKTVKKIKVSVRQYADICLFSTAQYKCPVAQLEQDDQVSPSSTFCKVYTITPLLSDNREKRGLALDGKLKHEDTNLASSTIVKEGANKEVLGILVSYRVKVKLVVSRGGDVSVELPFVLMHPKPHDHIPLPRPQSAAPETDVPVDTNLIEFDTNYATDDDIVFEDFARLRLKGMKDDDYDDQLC

In test [1] the target is FLAG-MRGPRX4-GFP10-1D4 (human) (UniProt Q96LA9). In words: proximity ligation.
The target in test [2] is HA-MRGPRX4-1D4 (Mas-related GPCR subtype X4, dual epitope-tagged) (human) (UniProt Q96LA9). As to the kind of experiment: multiplexed suspension bead array.
Test [3] deals with CALCRL in complex with RAMP2 (calcitonin receptor-like receptor co-expressed with RAMP2) (human) (UniProt Q16602+O60895). In words: FRET or BRET.

No constants are given. Whether binding was seen depends on the method and setting. For part of these data: In cells and extracts the contact can be indirect. Some entries that bind do so weakly or less than the wild type. For part of these data: Sequences can lack the tags named with a protein.

Regarding “3xHA-RAMP2-OLLAS (from UniProt O60895 43-175)”, in test [1], the binding result is “binds”.

As to “FLAG-RAMP2-OLLAS (receptor activity-modifying protein 2) (from UniProt O60895 43-175)”, the binding result in test [2] is reported as “binds”.

“β-arrestin1-RLuc3 (from UniProt P49407 1-418)”: the binding result in test [3] was “binds”.

Turning to “β-arrestin2-RLuc3 (from UniProt P32121 1-409)”, the binding entry in test [3] is recorded as “binds”.

B1: FLAG-RAMP3-OLLAS (receptor activity-modifying protein 3) (protein, UniProt O60896 28-148)
chain: CNETGMLERLPLCGKAFADMMGKVDVWKWCNLSEFIVYYESFTNCTEMEANVVGCYWPNPLAQGFITGIHRQFFSNCTVDRVHLEDPPDEVLIPLIVIPVVLTVAMAGLVVWRSKRTDTLL
Turning to B1, in test [2], the binding entry is reported as “binds”.

B2: 3xHA-RAMP3-OLLAS (protein, UniProt O60896 28-148)
chain: CNETGMLERLPLCGKAFADMMGKVDVWKWCNLSEFIVYYESFTNCTEMEANVVGCYWPNPLAQGFITGIHRQFFSNCTVDRVHLEDPPDEVLIPLIVIPVVLTVAMAGLVVWRSKRTDTLL
B2: the binding entry in test [1] is on record as “binds”.
